The experiment deals with HEK293A TEAD-LUC reporter. The experiment is described as follows: TEAD-luciferase reporter activity (YAP activation), robust Z score vs plate; higher = stronger YAP/TEAD activation. The note with it: 24 h.

Structures can show the parent of a compound that is named as a salt. This is one part of the list. This data set is noisy: repeats of one test often differ as much as different tests do.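 In a drug-repurposing library screen, luminescence reads luciferase driven by eight TEAD-binding elements, stably integrated into human kidney-derived cells. Compounds scoring over five robust Z scores above the plate mean are called hits.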

Turning to `NCC1(CC(=O)O)CC2CCCC21` (stereo not given), the TEAD-luciferase reporter activity by setting is: (compound concentration: 200 nM) inactive: -1.44; (compound concentration: 2 uM) inactive: -0.914; (compound concentration: 10 uM) inactive: -1.01.
The like results for `CCOC(=O)C1(c2ccccc2)CCCN(C)CC1` (stereo not given) were, in that order, inactive: -1.48, inactive: 1.13 and inactive: 1.04.
As for `CCC1(CC)C(=O)NC(=O)NC1=O` [Barbital], the TEAD-luciferase reporter activity was inactive: 2.06 (compound concentration: 200 nM) and inactive: -0.347 (compound concentration: 10 uM).
`C=CCC1(CC(C)C)C(=O)NC(=O)NC1=O` [Butalbital]: the TEAD-luciferase reporter activity was inactive: -0.609 (compound concentration: 200 nM), inactive: -1.21 (compound concentration: 2 uM) and inactive: -0.57 (compound concentration: 10 uM).
The like results for `COCCC1CC2CN3CCc4c([nH]c5ccccc45)[C@](C(=O)OC)(C2)[C@H]13` (stereo not given in full) [18-Methoxycoronaridine] were, in that order, inactive: 0.349, inactive: -0.78 and inactive: 0.0478.
With `COc1ccc(C[C@H]2C(=O)N[C@@H](C)C(=O)N(C)[C@H]3Cc4ccc(cc4)Oc4cc(ccc4OC)C[C@@H](C(=O)N[C@H](C)C(=O)N[C@@H](C)C(=O)N2C)N(C)C3=O)cc1`, the TEAD-luciferase reporter activity reads like this: (compound concentration: 200 nM) inactive: -0.646; (compound concentration: 2 uM) inactive: -2.48; (compound concentration: 10 uM) inactive: 1.04.
For the compound `Clc1ccccc1C1=NCc2nnc(C3CCCCC3)n2-c2sc(Br)cc21`, the TEAD-luciferase reporter activity runs as follows: (compound concentration: 200 nM) inactive: 1.08; (compound concentration: 2 uM) inactive: -0.247; (compound concentration: 10 uM) inactive: 0.456.
On the same counts, the results for `CCC[C@@H]1CC2=CC(=O)CC[C@]2(C)[C@H]2CC[C@@]3(C)[C@@H](CC[C@@]3(O)CCC(=O)[O-])[C@H]12` [oxprenoate potassium] are inactive: 2.81, inactive: -1.01 and inactive: 1.28.
The like results for `O=C1CN2CCOC2(c2ccccc2F)c2cc(Cl)ccc2N1CCCO` (stereo not given) were, in that order, inactive: -0.622, inactive: -0.539 and inactive: -0.634.
Turning to `O=C(Nc1ccccc1)N[C@H]1C(=O)N(CC23CC4CC(CC(C4)C2)C3)c2ccccc2N(c2ccccc2)C1=O`, the TEAD-luciferase reporter activity by setting is: (compound concentration: 200 nM) inactive: -1.16; (compound concentration: 2 uM) inactive: -1.01; (compound concentration: 10 uM) inactive: -0.323.
For the compound `CCC1CN2CCc3cc(OC)c(OC)cc3C2CC1CC1NCCc2cc(OC)c(OC)cc21` (stereo not given) [Emetine], the TEAD-luciferase reporter activity (compound concentration: 200 nM) was inactive: -0.687, the TEAD-luciferase reporter activity (compound concentration: 2 uM) was inactive: -3.28 and the TEAD-luciferase reporter activity (compound concentration: 10 uM) was inactive: 0.16.
The like results for `OC(c1ccccc1)(c1ccccc1)C1CCNCC1` were, in that order, inactive: -0.787, inactive: 1.79 and inactive: 1.92.
On the same counts, the results for `CC(=O)C(C)Oc1cc(N)c(Cl)cc1C(=O)NC1CN2CCC1CC2` (stereo not given) are inactive: 1.57, inactive: -1.27 and inactive: -0.295.
On the same counts, the results for `CCCCCCC1(c2cc(O)c3c(c2)OC(C)(C)[C@@H]2CC[C@@H](O)C[C@@H]32)CCC1` are inactive: -0.278, inactive: 0.399 and inactive: 0.767.
For `FC(F)(F)c1ccc(N2CCNCC2)nc1Cl`, the TEAD-luciferase reporter activity is inactive: -0.587 (compound concentration: 200 nM), inactive: -1.96 (compound concentration: 2 uM) and inactive: -0.0173 (compound concentration: 10 uM).
With `O=C1CN=C(c2ccccc2)c2cc([N+](=O)[O-])ccc2N1`, the TEAD-luciferase reporter activity is inactive: 0.56 (compound concentration: 200 nM) and inactive: 0.15 (compound concentration: 10 uM).
The like results for `O=C(C1CCCN1C(=O)NC1CCCC1)N1CCC(N2Cc3ccccc3C2=O)CC1` (stereo not given) were, in that order, inactive: -0.354 and inactive: -0.487.
Regarding `CCCN1CCC[C@@H]2Cc3n[nH]cc3C[C@H]21` [Quinpirole hydrochloride], the TEAD-luciferase reporter activity runs as follows: (compound concentration: 200 nM) inactive: -0.587; (compound concentration: 2 uM) inactive: -0.457; (compound concentration: 10 uM) inactive: -1.17.
The like results for `CC1Oc2ccccc2CC1N(C)C` (stereo not given) [trebenzomine] were, in that order, inactive: -0.0529, inactive: -0.997 and inactive: -1.15.
On the same counts, the results for `CC(C(=O)c1ccc(N)cc1)N1CCCCCC1` (stereo not given) are inactive: -0.282, inactive: -0.704 and inactive: -2.39.
On the same counts, the results for `NC(=O)OCCCc1ccccc1` are inactive: -2.11, inactive: -0.224 and inactive: 1.32.
Regarding `C[C@@H](NC(=O)[C@H](Cc1ccccc1)NC(=O)[C@@H](C)NC(=O)[C@@H](N)Cc1ccc(O)cc1)C(=O)N[C@@H](Cc1ccc(O)cc1)C(N)=O` [Casokefamide], the TEAD-luciferase reporter activity is inactive: -0.414 (compound concentration: 200 nM), inactive: -0.385 (compound concentration: 2 uM) and inactive: 0.0515 (compound concentration: 10 uM).
On to `C=C(c1ccc(OC(C)(C)COC(=O)CCC(=O)O)cc1)C1COC2(OO1)C1CC3CC(C1)CC2C3` (stereo not given), for which the TEAD-luciferase reporter activity is inactive: -1.82 (compound concentration: 200 nM), inactive: -1.16 (compound concentration: 2 uM) and inactive: 1.78 (compound concentration: 10 uM).
Turning to `CNC(=O)Oc1ccc2c(c1)[C@]1(C)CCN(C)[C@@H]1N2C` [physostigmine], the TEAD-luciferase reporter activity (compound concentration: 200 nM) was inactive: -1.05, the TEAD-luciferase reporter activity (compound concentration: 2 uM) is inactive: 0.282 and the TEAD-luciferase reporter activity (compound concentration: 10 uM) was inactive: 1.64.
As to `CCc1ccccc1NC(=O)Oc1ccc2c(c1)C1(C)CCN(C)OC1N2C` (stereo not given), the TEAD-luciferase reporter activity was inactive: 1.81 (compound concentration: 200 nM), inactive: -1.83 (compound concentration: 2 uM) and inactive: 1.21 (compound concentration: 10 uM).
The like results for `CCC(=O)OC[C@@H](C(=O)O[C@@H]1C[C@@H]2[C@H]3O[C@H]3[C@H](C1)N2C)c1ccccc1` were, in that order, inactive: -1.29, inactive: -0.933 and inactive: 0.467.
